Some of the results follow.
Key:
Test in all cases: log2 fold change, soluble protein after heating vs DMSO (PISA); higher = thermal stabilisation; K562 cells, 10 uM, 30 min; active = over 0.2 and 3.5 SD of the protein, either way, in both replicates (recomputed)
[1] = compound: C1=CC=C(C=C1)[C@H](COC2=CC3=C(C=C2)NC(=O)N3)NC(=O)C4=CC=CN(C4=O)CC5=CC(=C(C=C5)F)F
Outline: (§1)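 Values are thermal stability changes relative to control samples and are taken from duplicates. They are stated as log2 fold changes. Before quantification by TMTpro 16plex LC-MS/MS with equalised channel sums, K562 cells at 2×10^6 cells/mL were treated with 10 μM compound for 30 min, heated in aliquots for 3 min across 48°C-58°C, pooled, extracted in PBS with 0.5% NP-40 at 4°C, and centrifuged at 21,000xg for 90 min to give the soluble supernatant.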

Sequences of proteins named here, by UniProt entry; tags and fusion partners are left off. A change or cut given only in a name is not applied to a line headed by its entry.
UniProt P42025, whole entry, looked up: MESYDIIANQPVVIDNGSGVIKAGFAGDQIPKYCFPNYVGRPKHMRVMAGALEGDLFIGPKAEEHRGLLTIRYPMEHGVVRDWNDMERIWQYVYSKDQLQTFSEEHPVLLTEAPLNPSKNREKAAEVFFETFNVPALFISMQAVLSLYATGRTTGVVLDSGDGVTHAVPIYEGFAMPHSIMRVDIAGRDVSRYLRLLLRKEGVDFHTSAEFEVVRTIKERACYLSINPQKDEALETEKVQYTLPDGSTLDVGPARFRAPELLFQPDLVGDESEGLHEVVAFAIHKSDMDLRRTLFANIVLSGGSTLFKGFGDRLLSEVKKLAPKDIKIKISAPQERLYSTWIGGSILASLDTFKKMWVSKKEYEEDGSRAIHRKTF
UniProt O15254: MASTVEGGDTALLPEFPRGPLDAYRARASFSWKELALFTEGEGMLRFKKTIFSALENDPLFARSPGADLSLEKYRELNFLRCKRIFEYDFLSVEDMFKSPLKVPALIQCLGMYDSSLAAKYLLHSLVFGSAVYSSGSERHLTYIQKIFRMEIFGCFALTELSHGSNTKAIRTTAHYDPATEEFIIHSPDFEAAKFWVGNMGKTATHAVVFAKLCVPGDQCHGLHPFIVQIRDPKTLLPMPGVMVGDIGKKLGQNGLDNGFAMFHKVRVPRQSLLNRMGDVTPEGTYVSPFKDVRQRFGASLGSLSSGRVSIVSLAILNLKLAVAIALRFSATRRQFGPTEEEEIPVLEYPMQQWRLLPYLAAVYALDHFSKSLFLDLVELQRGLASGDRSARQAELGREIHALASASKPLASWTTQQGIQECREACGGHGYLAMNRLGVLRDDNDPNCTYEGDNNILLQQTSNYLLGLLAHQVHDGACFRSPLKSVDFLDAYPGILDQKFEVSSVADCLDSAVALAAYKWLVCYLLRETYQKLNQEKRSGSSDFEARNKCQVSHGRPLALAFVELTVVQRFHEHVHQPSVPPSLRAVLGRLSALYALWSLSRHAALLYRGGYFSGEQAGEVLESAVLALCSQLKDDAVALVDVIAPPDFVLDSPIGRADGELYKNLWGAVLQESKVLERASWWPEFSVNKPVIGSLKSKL
UniProt P33527: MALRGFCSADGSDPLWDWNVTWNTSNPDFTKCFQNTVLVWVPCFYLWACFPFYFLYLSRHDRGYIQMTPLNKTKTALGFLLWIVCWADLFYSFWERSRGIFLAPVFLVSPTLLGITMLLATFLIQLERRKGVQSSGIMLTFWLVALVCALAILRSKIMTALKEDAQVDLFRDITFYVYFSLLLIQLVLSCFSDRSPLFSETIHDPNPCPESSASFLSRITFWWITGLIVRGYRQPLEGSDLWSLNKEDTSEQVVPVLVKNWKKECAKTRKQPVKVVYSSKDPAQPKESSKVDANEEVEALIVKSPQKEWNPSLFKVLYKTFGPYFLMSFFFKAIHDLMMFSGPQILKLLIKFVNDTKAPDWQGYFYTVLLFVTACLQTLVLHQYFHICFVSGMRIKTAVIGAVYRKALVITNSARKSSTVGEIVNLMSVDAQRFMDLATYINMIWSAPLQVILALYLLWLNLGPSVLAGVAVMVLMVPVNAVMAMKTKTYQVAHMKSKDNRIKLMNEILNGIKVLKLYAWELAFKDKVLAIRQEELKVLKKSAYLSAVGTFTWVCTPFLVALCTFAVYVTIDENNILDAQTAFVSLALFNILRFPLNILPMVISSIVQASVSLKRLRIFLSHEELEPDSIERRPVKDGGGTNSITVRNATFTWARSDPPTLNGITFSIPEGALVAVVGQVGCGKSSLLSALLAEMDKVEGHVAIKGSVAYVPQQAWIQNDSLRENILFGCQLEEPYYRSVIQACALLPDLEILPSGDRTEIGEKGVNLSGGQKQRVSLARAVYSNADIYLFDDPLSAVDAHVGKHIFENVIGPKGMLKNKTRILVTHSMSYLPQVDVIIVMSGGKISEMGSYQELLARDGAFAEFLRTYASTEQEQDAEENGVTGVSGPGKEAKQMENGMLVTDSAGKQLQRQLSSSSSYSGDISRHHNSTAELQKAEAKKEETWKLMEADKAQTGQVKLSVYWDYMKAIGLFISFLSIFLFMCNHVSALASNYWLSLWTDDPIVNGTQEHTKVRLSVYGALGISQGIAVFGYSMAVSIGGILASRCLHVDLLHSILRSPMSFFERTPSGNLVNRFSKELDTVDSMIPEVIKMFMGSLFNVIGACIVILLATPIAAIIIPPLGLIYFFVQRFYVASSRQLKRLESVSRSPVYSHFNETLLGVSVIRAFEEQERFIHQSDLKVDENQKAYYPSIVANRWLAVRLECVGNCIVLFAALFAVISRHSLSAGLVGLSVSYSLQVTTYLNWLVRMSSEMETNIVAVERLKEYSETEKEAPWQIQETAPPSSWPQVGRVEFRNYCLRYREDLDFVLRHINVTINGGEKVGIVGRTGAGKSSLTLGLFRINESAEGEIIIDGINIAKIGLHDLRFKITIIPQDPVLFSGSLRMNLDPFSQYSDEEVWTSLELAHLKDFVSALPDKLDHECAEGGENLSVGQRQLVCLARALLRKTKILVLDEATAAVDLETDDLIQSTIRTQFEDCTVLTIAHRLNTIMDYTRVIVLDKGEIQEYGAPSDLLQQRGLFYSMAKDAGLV
UniProt O75027: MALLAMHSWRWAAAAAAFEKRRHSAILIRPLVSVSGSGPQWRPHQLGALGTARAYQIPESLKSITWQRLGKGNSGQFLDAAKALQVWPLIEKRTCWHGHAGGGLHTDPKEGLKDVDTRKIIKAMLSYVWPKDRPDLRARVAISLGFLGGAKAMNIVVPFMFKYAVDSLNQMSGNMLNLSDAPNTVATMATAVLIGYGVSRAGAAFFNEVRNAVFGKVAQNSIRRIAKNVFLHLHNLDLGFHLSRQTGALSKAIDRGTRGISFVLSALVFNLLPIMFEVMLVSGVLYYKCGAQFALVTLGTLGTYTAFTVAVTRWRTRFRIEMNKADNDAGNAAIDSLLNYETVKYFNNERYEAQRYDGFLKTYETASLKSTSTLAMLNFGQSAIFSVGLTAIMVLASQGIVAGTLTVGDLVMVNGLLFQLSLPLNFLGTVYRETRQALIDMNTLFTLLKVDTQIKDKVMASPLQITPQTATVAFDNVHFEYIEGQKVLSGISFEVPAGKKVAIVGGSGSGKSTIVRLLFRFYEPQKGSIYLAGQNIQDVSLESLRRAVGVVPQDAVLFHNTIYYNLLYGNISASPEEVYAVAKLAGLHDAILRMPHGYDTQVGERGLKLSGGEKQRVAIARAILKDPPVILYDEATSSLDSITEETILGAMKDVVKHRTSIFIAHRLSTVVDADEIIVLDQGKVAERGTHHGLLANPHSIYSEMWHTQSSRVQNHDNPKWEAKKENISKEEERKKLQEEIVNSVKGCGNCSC
UniProt Q9H568: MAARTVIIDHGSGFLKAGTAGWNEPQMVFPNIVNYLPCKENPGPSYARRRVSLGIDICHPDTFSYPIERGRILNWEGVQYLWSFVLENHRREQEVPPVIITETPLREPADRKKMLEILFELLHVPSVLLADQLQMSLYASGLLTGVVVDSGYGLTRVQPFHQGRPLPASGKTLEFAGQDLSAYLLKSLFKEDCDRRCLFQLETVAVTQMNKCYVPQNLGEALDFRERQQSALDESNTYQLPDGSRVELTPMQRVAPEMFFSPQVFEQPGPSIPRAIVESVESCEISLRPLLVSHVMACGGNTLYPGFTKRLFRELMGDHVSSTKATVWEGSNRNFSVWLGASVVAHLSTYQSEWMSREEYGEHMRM
UniProt Q5JTZ9, whole entry, looked up: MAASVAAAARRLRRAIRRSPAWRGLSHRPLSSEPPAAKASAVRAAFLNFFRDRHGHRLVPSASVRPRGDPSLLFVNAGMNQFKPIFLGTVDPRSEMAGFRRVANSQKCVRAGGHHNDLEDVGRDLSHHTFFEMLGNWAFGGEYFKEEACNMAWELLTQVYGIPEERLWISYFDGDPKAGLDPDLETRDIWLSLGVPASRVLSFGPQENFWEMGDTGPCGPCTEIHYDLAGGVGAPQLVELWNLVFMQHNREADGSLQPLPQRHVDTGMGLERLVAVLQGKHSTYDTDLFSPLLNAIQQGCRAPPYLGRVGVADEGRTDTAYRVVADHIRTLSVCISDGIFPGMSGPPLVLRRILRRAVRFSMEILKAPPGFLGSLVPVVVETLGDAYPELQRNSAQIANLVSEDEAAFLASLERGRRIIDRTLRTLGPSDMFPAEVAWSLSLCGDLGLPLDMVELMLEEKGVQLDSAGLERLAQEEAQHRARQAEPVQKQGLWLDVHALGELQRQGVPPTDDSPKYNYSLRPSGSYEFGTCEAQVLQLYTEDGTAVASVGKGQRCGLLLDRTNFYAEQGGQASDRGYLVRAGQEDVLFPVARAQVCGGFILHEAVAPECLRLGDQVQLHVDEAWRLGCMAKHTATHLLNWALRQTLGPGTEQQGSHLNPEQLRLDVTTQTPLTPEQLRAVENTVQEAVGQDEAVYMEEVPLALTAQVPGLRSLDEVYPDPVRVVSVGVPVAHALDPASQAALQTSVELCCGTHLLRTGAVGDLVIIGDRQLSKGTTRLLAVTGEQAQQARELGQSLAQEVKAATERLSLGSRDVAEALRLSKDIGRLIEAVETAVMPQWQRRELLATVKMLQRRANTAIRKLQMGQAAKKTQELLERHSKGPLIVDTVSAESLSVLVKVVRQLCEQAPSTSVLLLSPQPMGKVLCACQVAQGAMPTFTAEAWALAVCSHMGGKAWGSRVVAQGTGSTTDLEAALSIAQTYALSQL
UniProt Q96EY9: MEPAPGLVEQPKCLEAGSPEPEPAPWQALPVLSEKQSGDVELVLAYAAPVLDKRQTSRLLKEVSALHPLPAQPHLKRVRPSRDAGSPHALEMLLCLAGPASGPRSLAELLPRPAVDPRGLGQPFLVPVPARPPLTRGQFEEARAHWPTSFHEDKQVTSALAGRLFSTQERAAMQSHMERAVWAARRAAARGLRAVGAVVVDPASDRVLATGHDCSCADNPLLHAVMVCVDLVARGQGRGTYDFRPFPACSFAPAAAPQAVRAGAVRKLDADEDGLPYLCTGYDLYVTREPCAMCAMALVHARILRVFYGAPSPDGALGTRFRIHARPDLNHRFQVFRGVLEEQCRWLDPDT
UniProt P24666: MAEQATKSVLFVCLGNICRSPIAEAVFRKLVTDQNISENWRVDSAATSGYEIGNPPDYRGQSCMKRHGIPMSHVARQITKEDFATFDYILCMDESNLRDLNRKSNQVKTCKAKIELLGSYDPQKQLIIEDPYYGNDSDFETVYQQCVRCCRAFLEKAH
UniProt P28288: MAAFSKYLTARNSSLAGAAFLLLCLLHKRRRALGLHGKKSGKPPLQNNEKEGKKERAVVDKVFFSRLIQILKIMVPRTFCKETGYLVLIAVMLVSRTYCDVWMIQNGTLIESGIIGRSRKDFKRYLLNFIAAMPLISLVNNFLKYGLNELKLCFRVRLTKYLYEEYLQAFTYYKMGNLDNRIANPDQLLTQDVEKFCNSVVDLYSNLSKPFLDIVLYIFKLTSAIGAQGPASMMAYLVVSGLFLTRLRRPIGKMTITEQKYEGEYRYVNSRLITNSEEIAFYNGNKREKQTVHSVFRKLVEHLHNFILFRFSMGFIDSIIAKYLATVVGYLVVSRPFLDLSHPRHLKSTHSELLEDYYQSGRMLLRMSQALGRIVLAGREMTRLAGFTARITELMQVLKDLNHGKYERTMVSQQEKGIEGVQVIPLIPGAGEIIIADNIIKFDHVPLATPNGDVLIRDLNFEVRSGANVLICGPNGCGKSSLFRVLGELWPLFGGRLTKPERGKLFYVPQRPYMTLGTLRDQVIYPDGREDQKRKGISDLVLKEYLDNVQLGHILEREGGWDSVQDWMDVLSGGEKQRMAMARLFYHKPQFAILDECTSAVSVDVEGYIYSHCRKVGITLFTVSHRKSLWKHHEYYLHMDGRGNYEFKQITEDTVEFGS
UniProt Q9NUB1: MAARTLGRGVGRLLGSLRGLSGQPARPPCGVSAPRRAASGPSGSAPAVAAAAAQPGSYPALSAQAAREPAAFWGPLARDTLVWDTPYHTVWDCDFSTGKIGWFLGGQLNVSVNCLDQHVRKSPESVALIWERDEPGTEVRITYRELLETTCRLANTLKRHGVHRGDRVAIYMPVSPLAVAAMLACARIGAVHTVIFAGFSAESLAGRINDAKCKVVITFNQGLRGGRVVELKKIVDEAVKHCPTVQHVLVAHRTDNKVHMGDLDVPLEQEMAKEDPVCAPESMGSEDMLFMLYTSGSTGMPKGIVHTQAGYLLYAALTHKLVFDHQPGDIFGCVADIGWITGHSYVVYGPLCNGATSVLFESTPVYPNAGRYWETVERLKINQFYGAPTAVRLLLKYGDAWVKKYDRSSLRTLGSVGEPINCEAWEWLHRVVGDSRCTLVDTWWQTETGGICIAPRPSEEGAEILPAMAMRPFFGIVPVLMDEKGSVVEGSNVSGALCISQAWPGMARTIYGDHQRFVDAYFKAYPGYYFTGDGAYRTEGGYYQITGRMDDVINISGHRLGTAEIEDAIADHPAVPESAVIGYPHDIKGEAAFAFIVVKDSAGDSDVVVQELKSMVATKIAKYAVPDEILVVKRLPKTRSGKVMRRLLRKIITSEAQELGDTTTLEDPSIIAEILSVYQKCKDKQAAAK

[2] = compound: CC1=C(SC2=C1C(=N[C@H](C3=NN=C(N32)C)CC(=O)N)C4=CC=C(C=C4)Cl)C
Outline: as §1

[3] = compound: CC1=C2C(=CC=C1)N=C(N(C2=O)C3=CC=CC=C3C)CN4C=NC5=C(N=CN=C54)N
Outline: as §1

[4] = compound: Cc1sc2c(c1C)C(c1ccc(Cl)cc1)=N[C@@H](CC(=O)OC(C)(C)C)c1nnc(C)n1-2
Outline: as §1

[5] = compound: c1ccc([C@@H]2C[C@H]2NC2CCNCC2)cc1
Outline: as §1

Measured: log2 fold change

ABHD11 (UniProt Q8NFV4)
inactive: [1] -0.008 | [2] 0.127 | [3] 0.136 | [4] -0.12 | [5] -0.037

ACTR1B (UniProt P42025)
inactive: [1] -0.049 | [2] 0.105 | [3] 0.034 | [4] 0.028 | [5] -0.029

ACO2 (UniProt Q99798)
inactive: [1] 0 | [2] 0.067 | [3] 0.044 | [4] -0.023 | [5] -0.046

ACOX3 (UniProt O15254)
inactive: [1] 0.015 | [2] 0.238 | [3] -0.185 | [4] 0.131 | [5] 0.077

ABCC1 (UniProt P33527)
inactive: [1] 0.008 | [2] 0.029 | [3] 0.035 | [4] 0.018 | [5] 0.005

ABCE1 (UniProt H0Y990)
inactive: [1] -0.115 | [2] 0.11 | [3] 0 | [4] -0.019 | [5] 0.068

ABCB7 isoform 2 (UniProt O75027)
inactive: [1] -0.003 | [2] 0.07 | [3] 0.03 | [4] -0.079 | [5] -0.018

ACSS2 isoform 2 (UniProt Q9NR19)
inactive: [1] -0.012 | [2] 0.043 | [3] 0.074 | [4] -0.002 | [5] -0.021

ACTL8 (UniProt Q9H568)
inactive: [1] 0.017 | [2] -0.025 | [3] 0.035 | [4] -0.05 | [5] 0.028

ADAM9 (UniProt Q13443)
inactive: [1] 0.004 | [2] 0.023 | [3] -0.019 | [4] 0.033 | [5] 0.075

ABLIM1 (UniProt O14639)
inactive: [1] -0.073 | [2] -0.039 | [3] 0.102 | [4] -0.015 | [5] -0.011

ACTR3 (UniProt P61158)
inactive: [1] 0.021 | [2] -0.022 | [3] -0.031 | [4] -0.006 | [5] 0.05

ABCF1 (UniProt Q5STZ8)
inactive: [1] 0.032 | [2] 0.031 | [3] 0 | [4] -0.081 | [5] 0.06

ADAMTS5 (UniProt Q9UNA0)
inactive: [1] 0.149 | [2] 0.106 | [3] 0.152 | [4] -0.076 | [5] -0.028

AARS2 (UniProt Q5JTZ9)
inactive: [1] -0.047 | [2] 0.081 | [3] 0.044 | [4] 0.005 | [5] -0.016

ACO1 (UniProt P21399)
inactive: [1] 0.048 | [2] 0.018 | [3] 0.015 | [4] -0.005 | [5] 0.007

ADAM15 (UniProt Q13444)
inactive: [1] -0.041 | [2] 0.059 | [3] 0.096 | [4] 0.08 | [5] 0

6 successive records from above, quoted:
ACTR3 (UniProt P61158)
inactive: [1] 0.021 | [2] -0.022 | [3] -0.031 | [4] -0.006 | [5] 0.05

ABCF1 (UniProt Q5STZ8)
inactive: [1] 0.032 | [2] 0.031 | [3] 0 | [4] -0.081 | [5] 0.06

ADAMTS5 (UniProt Q9UNA0)
inactive: [1] 0.149 | [2] 0.106 | [3] 0.152 | [4] -0.076 | [5] -0.028

AARS2 (UniProt Q5JTZ9)
inactive: [1] -0.047 | [2] 0.081 | [3] 0.044 | [4] 0.005 | [5] -0.016

ACO1 (UniProt P21399)
inactive: [1] 0.048 | [2] 0.018 | [3] 0.015 | [4] -0.005 | [5] 0.007

ADAM15 (UniProt Q13444)
inactive: [1] -0.041 | [2] 0.059 | [3] 0.096 | [4] 0.08 | [5] 0

Remaining list, next part.

ACOT7 isoform 7 (UniProt O00154)
inactive: [1] 0.01 | [2] 0.028 | [3] 0.01 | [4] -0.056 | [5] 0.021

ADAT3 (UniProt Q96EY9)
inactive: [1] 0.107 | [2] -0.048 | [3] 0.1 | [4] 0.014 | [5] -0.095

AAK1 (UniProt Q2M2I8)
inactive: [1] 0.02 | [2] 0.039 | [3] 0.083 | [4] -0.217 | [5] -0.017

ACP1 isoform 2 (UniProt P24666)
inactive: [1] -0.107 | [2] -0.028 | [3] 0.004 | [4] 0.028 | [5] 0.022

ACTR1A (UniProt P61163)
inactive: [1] 0.025 | [2] 0.009 | [3] 0.025 | [4] 0.004 | [5] 0.002

ABRAXAS1 (UniProt Q6UWZ7)
inactive: [1] 0.231 | [2] -0.199 | [3] -0.105 | [4] 0.033 | [5] 0.104

ABCD3 (UniProt P28288)
inactive: [1] -0.001 | [2] 0.052 | [3] 0.004 | [4] -0.039 | [5] -0.033

ACADSB (UniProt P45954)
inactive: [1] -0.019 | [2] 0.096 | [3] 0.015 | [4] 0.06 | [5] -0.04

ACSS1 (UniProt Q9NUB1)
inactive: [1] -0.084 | [2] 0.067 | [3] 0.129 | [4] 0.09 | [5] 0.058

ADAD1 (UniProt Q96M93)
inactive: [1] -0.054 | [2] -0.012 | [3] 0.315 | [4] 0.09 | [5] -0.001
